Results on seven molecules are retold here after article PMC6504903.

These are yes or no findings as the source states them, for the method shown. For some of these results: In cells and extracts the contact can be indirect. Some results given as binding are weak or reduced against the parent protein; the word gives no strength. Tags and fused reporters may be left off the sequences shown.

The target in experiment [1] is T1, GFP11-mCherry-Mps2 (budding yeast) (UniProt P53159).
T1 sequence: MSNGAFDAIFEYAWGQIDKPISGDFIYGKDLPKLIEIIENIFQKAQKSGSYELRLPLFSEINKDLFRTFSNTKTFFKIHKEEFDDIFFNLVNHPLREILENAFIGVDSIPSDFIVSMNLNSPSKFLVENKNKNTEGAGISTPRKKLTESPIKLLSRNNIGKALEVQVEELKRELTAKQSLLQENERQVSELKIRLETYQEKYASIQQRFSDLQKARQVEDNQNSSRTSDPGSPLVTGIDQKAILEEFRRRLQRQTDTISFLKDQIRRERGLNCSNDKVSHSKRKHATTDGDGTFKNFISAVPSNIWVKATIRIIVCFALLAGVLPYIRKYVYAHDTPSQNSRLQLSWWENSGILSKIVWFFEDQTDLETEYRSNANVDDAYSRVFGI
The experiment can be described thus: split reporter; split-GFP (GFP1-10 and GFP11) in fixed yeast cells read by SIM at the SPB; the Mps2-Mps3 pairs also by three-colour imaging with Spc110-mT2.

Experiment [2] has as its target T2, Bbp1 fused to the Gal4-binding domain (BD) (budding yeast), Q12365.
T2 chain: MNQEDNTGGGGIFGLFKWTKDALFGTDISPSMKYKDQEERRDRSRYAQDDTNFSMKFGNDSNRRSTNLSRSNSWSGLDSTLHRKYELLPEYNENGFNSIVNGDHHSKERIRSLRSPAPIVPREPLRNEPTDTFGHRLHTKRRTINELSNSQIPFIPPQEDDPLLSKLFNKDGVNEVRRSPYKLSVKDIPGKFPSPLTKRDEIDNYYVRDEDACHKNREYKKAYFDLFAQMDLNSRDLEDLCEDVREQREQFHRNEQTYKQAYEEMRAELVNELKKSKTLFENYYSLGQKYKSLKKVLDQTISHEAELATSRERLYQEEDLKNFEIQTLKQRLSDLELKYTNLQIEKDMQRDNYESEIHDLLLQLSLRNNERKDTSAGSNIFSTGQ
Description: two-hybrid; Gal4 BD-Bbp1 with Gal4 AD fusions from low-copy centromeric plasmids (ADH1 promoter); HIS3 reporter, 10-fold serial dilutions on SD-Leu-Trp-His with 25 mM 3AT, 30°C, 4 d; in wild-type (SLJ1644), pom152Δ (SLJ12623) and pom152Δ mps2Δ (SLJ12624) strains. As to conditions: remark: other sources report otherwise.

Experiment [3] has as its target T3, GFP11-mCherry-Mps2 (budding yeast), P53159.
T3 chain: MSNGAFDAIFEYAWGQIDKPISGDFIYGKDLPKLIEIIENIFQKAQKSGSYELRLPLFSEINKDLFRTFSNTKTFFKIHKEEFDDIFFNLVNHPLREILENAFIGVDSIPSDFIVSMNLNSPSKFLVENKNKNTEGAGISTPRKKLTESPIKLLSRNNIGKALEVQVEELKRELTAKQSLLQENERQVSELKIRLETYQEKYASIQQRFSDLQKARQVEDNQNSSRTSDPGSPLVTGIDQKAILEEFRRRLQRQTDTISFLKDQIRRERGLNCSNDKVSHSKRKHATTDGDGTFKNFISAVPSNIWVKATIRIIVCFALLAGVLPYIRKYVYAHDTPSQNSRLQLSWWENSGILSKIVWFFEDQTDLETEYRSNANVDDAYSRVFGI
Description: split reporter; split-GFP (GFP1-10 and GFP11) in fixed yeast cells read by SIM at the SPB; the Mps2-Mps3 pairs also by three-colour imaging with Spc110-mT2. Particulars: remark: other sources report otherwise.

The target in experiment [4] is T4, Bbp1 fused to the Gal4-binding domain (BD) (budding yeast) (UniProt Q12365).
T4 sequence: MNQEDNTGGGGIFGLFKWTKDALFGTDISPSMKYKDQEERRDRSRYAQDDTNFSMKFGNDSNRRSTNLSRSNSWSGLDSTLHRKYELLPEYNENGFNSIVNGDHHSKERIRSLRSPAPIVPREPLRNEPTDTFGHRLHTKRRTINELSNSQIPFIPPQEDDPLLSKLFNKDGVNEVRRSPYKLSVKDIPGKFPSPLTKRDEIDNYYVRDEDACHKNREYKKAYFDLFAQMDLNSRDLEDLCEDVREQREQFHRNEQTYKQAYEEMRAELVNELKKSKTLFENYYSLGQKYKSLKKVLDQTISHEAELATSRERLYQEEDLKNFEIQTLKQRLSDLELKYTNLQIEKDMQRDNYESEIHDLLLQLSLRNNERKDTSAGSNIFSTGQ
The experiment can be described thus: two-hybrid; Gal4 BD-Bbp1 with Gal4 AD fusions from low-copy centromeric plasmids (ADH1 promoter); HIS3 reporter, 10-fold serial dilutions on SD-Leu-Trp-His with 25 mM 3AT, 30°C, 4 d; in wild-type (SLJ1644), pom152Δ (SLJ12623) and pom152Δ mps2Δ (SLJ12624) strains.

B1: GFP_(1–10)-Mps3 (protein, UniProt P47069 1-682)
chain: MNNSNEHRREEAGAANEQMPYNKAVKSAYADVLKDKMNREQEISLRAIKKGIYTDGGETDNYDMDKENDSAYEMFKKNLDFPLDQHNDDDDDDPYIEDNGQETDGYSDEDYTDEADKSFIEDSDSDSYDLESNSDFEENLESSGEAKKLKWRTYIFYGGLFFVFYFFGSFLMTTVKNNDLESHSSGATSSPGKSFSNLQKQVNHLYSELSKRDEKHSSELDKTVKIIVSQFEKNIKRLLPSNLVNFENDINSLTKQVETISTSMSELQRRNHKFTVENVTQWQDQLVKQLDTHLPQEIPVVINNSSSLLIIPELHNYLSALISDVIESPGIGTAGSAESRWEYDLNRYVKEILSNELQYIDKDYFIQEMNRRLQSNKQEIWEEITNRLETQQQQQQQQVQQDYSNVPQQYSSILMKRLIHQIYNSNQHQWEDDLDFATYVQGTKLLNHLTSPTWRQGSGVQPIELLTDSKQSSSTYWQCENEPGCSWAIRFKTPLYLTKISYMHGRFTNNLHIMNSAPRLISLYVKLSQTKEIKALQTLANQYGFGQHHKRDRNYIKIAKFEYRLTDSRIRQQMYLPPWFIQLKPLVRSIVFQVDENYGNKKFISLRKFIINGVTPQDLQIIENNEFPVLLGDTPEYGVTQNTDEGKRKVLLSKPPYASSSTSTKFHPASNVPSFGQDELDQ
Consider B1, for which the binding result in experiment [1] is recorded as “binds”.

B2: Ndc1 fused to the Gal4 activation domain (AD), P32500 1-655 (protein)
chain: MIQTPRELLNPRYTYHTIFSDVCKTRFNHLVTRLFFICSIIQTVVISLLALPHSPLWELALAFIPNILALNLVSLLIIVTRKNYMHVKNFGFANSLTFILGQLLSVKFLVYQGVYSMGSILLSFVLGVVFGRGGSGWKPYYKLFIWLVVPTIYNLQHHVTDADKLSFNCENFFQAPQDYVLERVKRIMEKSVILSVISMFVLPIFTTVFFSRQKSGLFDSFTNGVLAVTNLLIISCIIFITFEFINIAFDAHMSIGCLHKGKLISNLSSTPMETLLSGLSADKPFTRLTAYQELAYRATSLDPSLRAPIYHSKFRSSSGNTWSLILNECLKTIQINNEKVVQYLRSVQDLGGSATARHKKKVENLDYMYENGKLTSANERLFGNRPSMMAPLRDNGLLDESPNRLRVRTDDSVLLNRGNKKRHRSSYYDNDLDETTQTFNGSIFTHETTFMTAMRLMLKKLKNSIMSFIFPSYAERQSSDESDNYRLLPNGSNKAQISIIDIWSISKKRQAEKLVPLPICHANSVVALTGLLIRSKTEDPKGGIIASVGDILKTLERSICALGEFADWDPESMAYTAFQTQRTAQDRVQQDSEDEDSMKDTTDMISVLYQLSTSAFMEIVLEYNVALNDVYLDADVAKLANWFLEVYASGNPNAT
B2: the binding entry in experiment [2] is “binds”.

B3: Ndc1-GFP_(1–10), P32500 1-655 (protein)
chain: MIQTPRELLNPRYTYHTIFSDVCKTRFNHLVTRLFFICSIIQTVVISLLALPHSPLWELALAFIPNILALNLVSLLIIVTRKNYMHVKNFGFANSLTFILGQLLSVKFLVYQGVYSMGSILLSFVLGVVFGRGGSGWKPYYKLFIWLVVPTIYNLQHHVTDADKLSFNCENFFQAPQDYVLERVKRIMEKSVILSVISMFVLPIFTTVFFSRQKSGLFDSFTNGVLAVTNLLIISCIIFITFEFINIAFDAHMSIGCLHKGKLISNLSSTPMETLLSGLSADKPFTRLTAYQELAYRATSLDPSLRAPIYHSKFRSSSGNTWSLILNECLKTIQINNEKVVQYLRSVQDLGGSATARHKKKVENLDYMYENGKLTSANERLFGNRPSMMAPLRDNGLLDESPNRLRVRTDDSVLLNRGNKKRHRSSYYDNDLDETTQTFNGSIFTHETTFMTAMRLMLKKLKNSIMSFIFPSYAERQSSDESDNYRLLPNGSNKAQISIIDIWSISKKRQAEKLVPLPICHANSVVALTGLLIRSKTEDPKGGIIASVGDILKTLERSICALGEFADWDPESMAYTAFQTQRTAQDRVQQDSEDEDSMKDTTDMISVLYQLSTSAFMEIVLEYNVALNDVYLDADVAKLANWFLEVYASGNPNAT
For B3, the binding entry in experiment [3] was “binds”.

B4: Heh2-GFP_(1–10) (protein, UniProt Q03281 1-663)
chain: MDHRNLDPKTLKVSQLRRVLVENDVAFPANARKPVLVKLFEEKVRQRLQSSPEASKVRTSIQKVVKSGAKNADRKKTLKSKKLESSSSESKTVKDENVETNKRKREQISTDNEAKMQIQEEKSPKKKRKKRSSKANKPPESPPQSKSDGKATSADLTSELETVEELHKKDSSDDKPRVKELPKPELPNLKVSNEFLAQLNKELASAATENYDHSIKSTDLSSIRIETEEPVGPSTGAETRNESEVMENINLEVQPEVKEAKEELTKISETFDNQDEEDTSRLSSKKNIRSPKGRTRHFIANKTKRGIDIMKPFIAHLFIWLWNGAIFLSIICPILFGLWYREQRIQVGYCGHEKPLKSLAISAFPQTERVDSVLQAYRPNCLECPEHGICSSFMNVECEPGYEPKSSILETYGIIPFPKYCAKDESKEKEVDELVWKVNEYLKKKNAQHECGEGENLFESGETETKLYDIFSHSRPSWESQREFNDHWKNVLEILKKKDDIIWLPLDFETNGKREKSKSNNTNYIYRSTSKKWVTLQCHLEGDIQEYITKYGGSLFITLGVLFLIKKIQSTLDNYVQGEQIIEKLVKEAIDKLKDVKKNKGEEPFLTTVQLRATLLSDIPNIKEQNNLWAQTKEKIMKEQSENIELYLLEENGEIMTCWEWKE
With B4, the binding result in experiment [1] was “no binding”.

B5: Spc29 fused to the Gal4 activation domain (AD) (protein, UniProt P33419 1-253)
chain: MDYSNFGNSASKKFQDDTLNRVRKEHEEALKKLREENFSSNTSELGNKKHYRAQERMSSPLHRLSPTGKSDDRKVKSPLDDKLRRQLREGNTRLPPPPFSSYGMPPTNRSNLDRIRRRTSSPVRTDKFASQNVIDDQRLEIKYLERIVYDQGTVIDNLTSRITRLESFILNSISDRGDKNFASLEHSRSFSGFPTNKTYGLQMGGLYENDMPYRRSSDNINKEGAREDRSSQIHIENESTEDILKILSSSFHN
With B5, the binding entry in experiment [4] was “binds”.

B6: Bbp1-GFP_(1–10) (protein, UniProt Q12365 1-385)
chain: MNQEDNTGGGGIFGLFKWTKDALFGTDISPSMKYKDQEERRDRSRYAQDDTNFSMKFGNDSNRRSTNLSRSNSWSGLDSTLHRKYELLPEYNENGFNSIVNGDHHSKERIRSLRSPAPIVPREPLRNEPTDTFGHRLHTKRRTINELSNSQIPFIPPQEDDPLLSKLFNKDGVNEVRRSPYKLSVKDIPGKFPSPLTKRDEIDNYYVRDEDACHKNREYKKAYFDLFAQMDLNSRDLEDLCEDVREQREQFHRNEQTYKQAYEEMRAELVNELKKSKTLFENYYSLGQKYKSLKKVLDQTISHEAELATSRERLYQEEDLKNFEIQTLKQRLSDLELKYTNLQIEKDMQRDNYESEIHDLLLQLSLRNNERKDTSAGSNIFSTGQ
For the molecule B6, the binding entry in experiment [1] is recorded as “binds”.

B7: Nbp1-GFP_(1–10) (protein, UniProt P52919 1-319)
chain: MLKSVQGLWKDFFGIRDDGRKREYGSLDEVRKRSALRSRRKQMRPTGKSVLKRPRKVTDRKTEEKIRTNRRKTPKRRLTKIFQTIRDVFSNDNENMSKMQNVCGDMTRILKKRSQGRPSYMDTDTAKSRILRSDAFKRKISELKYNKQRISELRSGSSDGSSGKDRNQSLYLDREILLQRQIKKRDEKIKALESKLQSLQEALNYSNEKYRILEDLLDSSNIHPSYTKSRRTMSNLARENDEIKPLKIDLSPSPIRRTNSLFTSSPMKTYNRDGNIPEMQPLQENISPACPTPPYRSRETEKEDETLSPISVDFSSYLS
With B7, the binding result in experiment [1] was “binds”.
